Percent effect of library compounds

Source: ChEMBL document CHEMBL3988442, “University of Dundee, Small-Polar-MMV Screening Library” (2021).

Mtb cholesterol medium: 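Growth of Mycobacterium tuberculosis over 4 days (cholesterol / DPPC medium with tyloxapol); the read-out is not stated. Tested at 50 µM. The record gives no direction; compounds that gave an IC50 in retests scored well above the rest, so higher reads as more growth inhibition. Of about 69,000 compounds tested this way, about 370 (0.54%) reached 50% or more in at least one test.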
Mtb glucose medium: 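Whole-cell growth test on Mycobacterium tuberculosis, read after 3 days in glucose-containing 7H9 medium; the read-out is not stated. Compounds at 50 µM. Higher reads as more growth inhibition (inferred: compounds with an IC50 in retests scored well above the rest). About 69,000 compounds were tested under these conditions; 1.1% (about 760) showed 50% or more at least once.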

The filed quantity is “Percent Effect” (%).
The record does not define 0% and 100%; most values in the screen are far below 50% and negative numbers occur (in some assays of this library far below -100).
This is an unselected part of the compounds tested.
Two or more numbers in one place are separate tests of the same structure; such repeats can differ widely.
A dash means the value is not listed here; it may have been measured.

Compound	Mtb cholesterol medium	Mtb glucose medium
COCCc1noc(C2CCCN(c3nc(N)nc4c3CCCC4)C2)n1 (stereo unspecified)	-2.88	-2.051
CS(=O)(=O)N1CC(=O)N(CCCc2ccccc2)CC(O)C1 (stereo unspecified)	-10.35	9.598
[H][C@@]12COC[C@]1(CNS(C)(=O)=O)CN(C(=O)CCc1ccccc1)C2	-1.516 and -21.8	-13.04 and -8.937
CSCc1ccc(N2CCN(c3ccc(Cl)cn3)CC2)nc1	-40.1	-11.22
Cc1nn(C)cc1CC(C#N)C(=O)Nc1cccc(O)c1 (stereo unspecified)	-8.622	-12.83 and -3.332
O=C(Nc1cnn(CCN2CCOCC2)c1)c1ccccc1Cl	15.99	10.01
CN1CCN(C(=O)[C@@H]2CN(C)C[C@]23COc2ccc(F)cc2C3=O)CC1	-15.21 and 8.442	-46.87
Cc1cccc(-c2nc(C)nn2CC(=O)NCC(C)C)c1	-11.05	14.58
CC(C)N1CC(C(=O)N2CCC(Oc3ccccc3Cl)CC2)CC1=O (stereo unspecified)	0.08581 and -8.648	5.216
c1ccc2c(NC3CCc4ncnn4C3)ncnc2c1 (stereo unspecified)	-7.116	-13.56
Cc1c(C2CCCN(C(=O)c3ccncc3)C2)n2c(nc1=O)CCC2.Cl (stereo unspecified)	-0.506	23.09
COc1ccc(OC)c(CNC2CCCc3nc(N(C)C)ncc32)c1 (stereo unspecified)	1.173	2.478 and 0.6625
O=C(O)C(F)(F)F.[H][C@]12CCN(c3ncc(CC)cn3)[C@@]1([H])CCC(=O)N2CC1CCOCC1	-32.62	-68.38 and -7.724
CNC(=O)c1cc2c(nc1N(C)C)CCN(c1ncc(F)cn1)CC2.O=C(O)C(F)(F)F	-18.43	9.238
O=C(O)C(F)(F)F.O=C(O)C(F)(F)F.[H][C@@]12OCCN(Cc3c(C)noc3C)[C@@]1([H])CC[C@H]2Oc1ncccc1F	-29.84	-28.03
Cn1ncc(N2CCC(CNC3CC(C)(C)CC(C)(C)C3)C2)cc1=O (stereo unspecified)	-7.539	-36.72
COC(=O)c1cc(NS(=O)(=O)c2cn(C)cn2)c(F)cc1F	0.644	-12.37
CN1C(=O)Cc2cc(-c3csc(CCN4CCOC4=O)n3)ccc21	-18.96	-0.607
COc1ncccc1NC(=O)N1CCCC1c1cc(C)no1 (stereo unspecified)	-0.8669	-2.513
O=C(Nc1ccc(-c2csnn2)cc1)N1CCN2CCCCC2C1 (stereo unspecified)	12.14	-2.107
CC(=O)NCCc1ccc(S(=O)(=O)Nc2ccc(C)c(F)c2)s1	-14.44	2.005
CCC1CCCN(C(=O)NCc2cccnc2-n2cccn2)C1 (stereo unspecified)	10.85	-7.557
O=C1CCC2(CCCN(C(=O)c3cccs3)C2)N1 (stereo unspecified)	-1.438	-7.85
[H][C@]12C[C@@H](CN(C)C)N(C)[C@@]1([H])CCN(C(=O)Cc1cccs1)C2	-4.436 and 6.25	1.572
O=C1CN(CC2CC2)Cc2nc(NCc3ccccc3)sc21	-34.51	-
COc1cc2cc(C(=O)O)n(C)c2cc1OC	23.32	-8.059
CN(c1cccnc1N1CCCC1)S(=O)(=O)c1cccs1	-11.76	-6.558
CCc1nccn1C1CCCN(C(=O)c2cn3c(C)cccc3n2)C1 (stereo unspecified)	12.71	-0.7586 and 30.02
Cc1nn(C)c(C)c1S(=O)(=O)NCC1CCN(c2ccccn2)CC1	-5.229	2.423 and -17.9
Cc1nnc(CN(C)CC(=O)N2CCCN(C3CCCC3)CC2)n1C	6.361	4.697 and 2.588
CN(C)C(=O)C1CN(Cc2ccsc2)CCN(S(C)(=O)=O)C1 (stereo unspecified)	1.809	4.157
CN(C)CCn1ccnc1C1CCN(C(=O)CCC(F)(F)F)CC1	-7.575	7.757
Cn1ncc2c(N3CCCC4(CCNC4)C3)nc(C(C)(C)C)nc21 (stereo unspecified)	6.676	26.4
Cc1ccc(N(C)CC(O)COCc2ccccc2F)c(C)c1 (stereo unspecified)	13.37	7.729 and 16.91
CCc1n[nH]c(C2CN(CC(=O)N(C)Cc3ccco3)CCO2)n1 (stereo unspecified)	8.474	-14.73
CCc1nc(CCNC(=O)Nc2ccc(C(=O)NC)cc2)cs1	-11.87 and -2.07	1.163
[H][C@@]12CCN(C[C@@H]1CN1CCCCC1)[C@@H](CNC(=O)c1ccco1)C2	5.405	-2.508 and 6.543
CC(Cc1ccccc1F)NC(=O)CCc1nc(-c2nnc[nH]2)no1 (stereo unspecified)	4.961	3.793 and 1.338
CC(=O)N1CCC(Cc2cnc(-c3c(C)nn(C)c3C)cn2)CC1	-0.2545	-15.34
Cc1nc(C)c(S(=O)(=O)NC(=O)c2ccoc2)s1	23.75	26.27
Cc1n[nH]cc1CNCC(O)c1ccc(F)c(F)c1.Cl (stereo unspecified)	-12.87	-20.95 and -8.494
Cc1ccc(CNC(=O)CN2CCN(CCO)CC2)s1	-11.06	29.08
CN(CC(=O)N1CCCC(n2ccnc2)C1)c1cnccn1 (stereo unspecified)	4.719 and -4.065	14.48
Cn1cnn(Cc2c(F)cccc2Br)c1=O	-15.2	-5.272 and -10.42
CCC(NC1CCCC1)c1ccc(S(C)(=O)=O)cc1 (stereo unspecified)	4.235	-24.92 and -3.567
Cc1ccc(Oc2ncccc2CNC2CCOCC2)cn1	1.455	-8.625 and -0.9743
O=C(Nc1ccc(F)cc1)C1CNCCN1C(=O)CCc1cccnc1 (stereo unspecified)	-1.574	-3.087 and -2.327
Cc1n[nH]c(C)c1CCC(=O)NC1CCCN(c2ccccc2F)C1 (stereo unspecified)	-9.055	-27.22 and -10.87
Cc1nnc2n1CCN(C(=O)c1cc3cc(F)ccc3[nH]1)C2	-1.336	9.861
Cc1cccc(N2Cc3c(NC4CCCC4)ncnc3N(C)CC2=O)c1	2.435	0.09328
CCc1nc(N)nc(NCc2cnn3cccnc23)c1C	-21.62	-14.46
CCC(=O)N1CCC2(CCC(N3CCCC3)c3ccccc32)CC1.O=C(O)C(F)(F)F (stereo unspecified)	-9.126	-3.701 and -25.65
Cc1nc(CN2CCC3(CCCN(C(=O)c4cnccn4)C3)C2)cs1.O=C(O)C(F)(F)F (stereo unspecified)	-9.606	0.6529 and 35.93
[H][C@]12CC[C@]([H])(CN(Cc3cccc(C(=O)Nc4c(C)nn(C)c4C)c3)C1)N2	-8.875	-14
CN(Cc1nccs1)C1CCN(c2ncccn2)CC1	-2.585	-2.249
CC(=O)c1ccc(CN2CCCC23CCN(c2ccccn2)CC3)cc1	1.54	1.87
CC(C)C(=O)NC1CCN(Cc2cccc3c2OCCO3)CC1	-4.393	11.7
CCCc1nc(N2CC[C@@H](c3ccc4c(c3)OCO4)[C@H](O)C2)no1	51.82	38.78
[H][C@@]12CCCO[C@]1([H])[C@H](NC(=O)CC1CC1)CN(C(=O)c1ccoc1)C2	-16.29	-51.34
CC(C)OCCCNC(=O)CS(=O)(=O)Cc1ccc(C(C)C)cc1	15.67	17.93
O=C(NCC1CCOC1)Nc1ccc(OCC(F)(F)F)nc1 (stereo unspecified)	-2.095	-20.49
O=C(O)C(F)(F)F.[H][C@]12CN(CCN(C)C)C(=O)[C@@]1([H])CN(S(=O)(=O)c1cccs1)C2	25.75	5.18
Cc1noc(C)c1C(=O)NCC(c1ccsc1)N(C)C (stereo unspecified)	17.72	26.48 and 4.42
CC(NC(=O)N(C)Cc1ccc2c(c1)OCCO2)c1nncn1C (stereo unspecified)	-37.71	-34.3
COCC1c2nnn(CC3CC3)c2CCN1C(=O)c1ccncn1 (stereo unspecified)	-5.506 and -1.069	-21.51 and -1.648
CCSCCNC(=O)c1cnc(-c2ccccc2)nc1O	-17.19	-19.47
Cc1cc(C2CCCN2Cc2cc(-c3ccco3)on2)on1 (stereo unspecified)	-24.68	8.904 and -4.622
CCN(CC)C(=O)COc1nc(C(C)C)no1	-8.775	-5.108
O=C(NCc1cc[nH]n1)NCC(c1ccccc1)N1CCOCC1 (stereo unspecified)	3.92	-7.53
CC(C)(O)CCc1ccc(C(=O)NCCC2CCOC2)cc1 (stereo unspecified)	-5.284	10.94
[H][C@@]12CCN(Cc3cc(C)on3)C[C@@]1([H])O[C@@H](c1nc(C3CC3)cs1)C2	2.836	9.515
Cc1cnc(C)c(N2CCCC(C/C=C/c3ccccc3)(C(=O)O)C2)n1 (stereo unspecified)	-7.536	-13.58
CC(=O)Nc1ccc(CNC2CCCSC2)cc1 (stereo unspecified)	-15.08	2.392
Cc1ccc2c(c1)OC(C)CN2C(=O)CCc1cccnc1 (stereo unspecified)	-4.614	-1.399
Cc1ncsc1CN(C)C(=O)C(CC(C)C)N1CCCCC1=O (stereo unspecified)	7.137	15.78 and 0.6391
CC(=O)N[C@@H]1CN(C(=O)CC2CCOCC2)C[C@H]1O	-20.75	-20.67
Cc1cccc(CN2Cc3[nH]nc(COCC4CC4)c3C2)n1.O=C(O)C(F)(F)F	-1.748	-7.583 and -15.06
CN(C)C(c1ccccn1)[C@H]1CC[C@H](CNC(=O)C2CC2)CC1 (stereo partly specified)	14.74	-19.07

Some entries from above, unchanged:

* CN(CC(=O)N1CCCC(n2ccnc2)C1)c1cnccn1 (stereo unspecified) : Mtb cholesterol medium: 4.719% and -4.065%; Mtb glucose medium: 14.48%
* CC(C)OCCCNC(=O)CS(=O)(=O)Cc1ccc(C(C)C)cc1 : Mtb cholesterol medium: 15.67%; Mtb glucose medium: 17.93%
* CCSCCNC(=O)c1cnc(-c2ccccc2)nc1O : Mtb cholesterol medium: -17.19%; Mtb glucose medium: -19.47%
* CN(Cc1nccs1)C1CCN(c2ncccn2)CC1 : Mtb cholesterol medium: -2.585%; Mtb glucose medium: -2.249%
* Cc1cccc(N2Cc3c(NC4CCCC4)ncnc3N(C)CC2=O)c1 : Mtb cholesterol medium: 2.435%; Mtb glucose medium: 0.09328%
* Cc1n[nH]cc1CNCC(O)c1ccc(F)c(F)c1.Cl (stereo unspecified) : Mtb cholesterol medium: -12.87%; Mtb glucose medium: -20.95% and -8.494%
* [H][C@@]12CCN(Cc3cc(C)on3)C[C@@]1([H])O[C@@H](c1nc(C3CC3)cs1)C2 : Mtb cholesterol medium: 2.836%; Mtb glucose medium: 9.515%
* Cc1nn(C)c(C)c1S(=O)(=O)NCC1CCN(c2ccccn2)CC1 : Mtb cholesterol medium: -5.229%; Mtb glucose medium: 2.423% and -17.9%
* Cc1ccc(Oc2ncccc2CNC2CCOCC2)cn1 : Mtb cholesterol medium: 1.455%; Mtb glucose medium: -8.625% and -0.9743%